The other results are listed elsewhere or left out. Measured potencies and affinities stand elsewhere.
These compounds were tested on Acinetobacter baumannii. Conditions: Concentration 20 uM; ASSAY_TEST Inhibition of Bacterial Growth; detection method Absorption (OD600); MEDIA CAMHB; plate type 384well; NBS; CORNING #3640; time 18 hr.
Work on `CC1(C)OB(O)c2ccc(C3=NOC(c4cc(Cl)c(F)c(Cl)c4)(C(F)(F)F)C3)cc21` (stereo not given) yielded an Inhibition of 6.67%. In the case of `CO[C@@H](C(=O)N1Cc2[nH]nc(NC(=O)c3ccc(N4CCN(C)CC4)cc3)c2C1)c1ccccc1` [DANUSERTIB], the Inhibition is reported as 11.13%. With `CNCCC(Oc1ccc(C(F)(F)F)cc1)c1ccccc1` (stereo not given) [FLUOXETINE] the Inhibition was -2.58%. `Cc1cccc(C(=O)Nc2ccnc(N(C)C3CCN(CC(C)C)CC3)c2)c1` gave an Inhibition of 4.98%. Work on `Cc1nn(Cc2ccccc2)c(Cl)c1C(=O)NC1CCCCCC1` yielded an Inhibition of 8.48%. For `Cc1cc(C2=NOC(c3cc(Cl)c(F)c(Cl)c3)(C(F)(F)F)C2)ccc1C(=O)NCc1ccc2c(c1)C(C)(C)OB2O` (stereo not given), the Inhibition was 3.06%. With `CO[C@@H]1CN(c2ccc(C#CC3(O)CN4CCC3CC4)c(Cc3ccccc3)n2)C[C@H]1O` (stereo not given in full) the Inhibition was 7.79%. `CC(=O)Oc1ccccc1C(=O)Nc1ncc([N+](=O)[O-])s1` [NITAZOXANIDE] gave an Inhibition of 9.65%. Compound `Cc1nn(C)c(C)c1NS(=O)(=O)c1c(Cl)cc(-c2ccnc(N3CCNCC3)c2)cc1Cl` has an Inhibition of 12.74%. For `Nc1c2c(nc3sc4c(c13)CCCC4)CCCC2`, the Inhibition was 12.49%.

Source: ChEMBL document CHEMBL4513149, “CO-ADD screening of MMV (CH) - MMV compounds” (2021)
